Hit rate of the full screen: of about 31,000 sequences, about 1,400 (4.5%) were called active.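 How the source made its calls: active means median seed-adjusted z-score above 1 or below -1; inactive means the rest.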 The list shows a part of the results.
Assay: Novel Modifiers of Survival Motor Neuron (SMN) Protein: Gene Identification via Genome-wide siRNA Screen
Details: HEK293T SMN2-luciferase reporter, siRNA knockdown, 72 h; actives lie on both sides
Outline: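 Each of three siRNAs per gene is reverse-transfected (1 pmol) into reporter HEK293T cells whose luciferase output tracks SMN protein level. After 72 h culture, ONE-Glo luminescence is control-normalized, log10-transformed and MAD-standardized; Common Seed Analysis deprioritizes seed-driven hits.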
In the case of CGGCAUUACCUUUUCUACATT against LPCAT3, the median seed-adjusted z-score is reported as inactive: -0.388.
In the case of CUUUGGUUGAAGAAAGUAATT against TRMT6, the median seed-adjusted z-score is reported as inactive: 0.069.
For GCAAGGAUAUGUACCAGAUTT against AGXT, the median seed-adjusted z-score was inactive: 0.017.
In the case of GCAACUCUUGAUGACAUAATT against SSB, the median seed-adjusted z-score is reported as inactive: 0.
In the case of GUAUGGUCGGUUUACAAUATT against YES1, the median seed-adjusted z-score is reported as inactive: -0.508.
For AGUGGGACGUGUUUUCCGATT against STX11, the median seed-adjusted z-score was inactive: -0.518.
In the case of GAACUAGCUUGUUUUGACATT against KLF15, the median seed-adjusted z-score is reported as inactive: -0.45.
With GACAGGUAGUGAUCGCAUUTT against HERC4 the median seed-adjusted z-score was inactive: 0.00343.
In the case of UGAGGAUAGUGGGUCUGUATT against MEIS3, the median seed-adjusted z-score is reported as inactive: 0.207.
In the case of GCUUCAUCCUGCACAAUAATT against PTGDS, the median seed-adjusted z-score is reported as inactive: 0.48.
For CAAGGCAUGUACAAAGAAATT against FPR1, the median seed-adjusted z-score was inactive: 0.0229.
For GUAUGUCACAAAUCCUUCATT against ZFP28, the median seed-adjusted z-score was inactive: 0.275.
For GGAUCUGACUAUUCGCACUTT against LRIG2, the median seed-adjusted z-score was inactive: 0.386.
With CAACUUCGCUCCGUACUUUTT against CH25H the median seed-adjusted z-score was inactive: -0.264.
With CAACGACCGGAGGUAUAAATT against BPGM the median seed-adjusted z-score was inactive: 0.408.
For CACUCGUAAUACCCUUAAATT against GGPS1, the median seed-adjusted z-score was inactive: -0.372.
In the case of GGUUUAUCUUUGAAGACCATT against SLC4A1, the median seed-adjusted z-score is reported as inactive: -0.861.
For GAAGGAUGGUAUUCAGACUTT against GATA1, the median seed-adjusted z-score was inactive: 0.371.
For GAUCGAUUUGGAGAACUUATT against IRX3, the median seed-adjusted z-score was inactive: -0.285.
With GGACACUAGGAAAUCCUAATT against MMP16 the median seed-adjusted z-score was inactive: 0.144.
In the case of CGAGCAGGCUAUCAUCGAUTT against ANXA8L2, the median seed-adjusted z-score is reported as inactive: -0.147.
In the case of GGACAAAAAGGUUGAAUUATT against PDIA5, the median seed-adjusted z-score is reported as inactive: 0.989.
In the case of CGAAGUGAUUUGAUACCAATT against GINS1, the median seed-adjusted z-score is reported as inactive: -0.224.
In the case of GAAGGAUGCAGAAACGUGATT against ITGB8, the median seed-adjusted z-score is reported as inactive: -0.0936.
In the case of GCAUUUGCAAUGAAGGCUATT against DNER, the median seed-adjusted z-score is reported as inactive: -0.316.
In the case of UGCGCGAGAUGGUGGAAAATT against KCNG4, the median seed-adjusted z-score is reported as inactive: 0.666.
With AGAAGAAUCUGAUCAGUUUTT against AKR1CL2 the median seed-adjusted z-score was inactive: -0.949.
For GGCCUUACCCUAAAUCGAATT against RARB, the median seed-adjusted z-score was inactive: 0.409.
In the case of CCUCCAUGCGCAAGACUAATT against SLC2A8, the median seed-adjusted z-score is reported as inactive: -0.105.
In the case of CAAUAAUGGUGUUCGAAUATT against LECT2, the median seed-adjusted z-score is reported as inactive: 0.0371.
With GAAACUGGACAGUAAGAAATT against HDAC4 the median seed-adjusted z-score was inactive: -0.0988.
With CCAGAUUGAUCGUAAGAAATT against ARFGAP2 the median seed-adjusted z-score was inactive: 0.0672.
In the case of GCAAGAUCCGUGAGGAGUUTT against TUBB6, the median seed-adjusted z-score is reported as inactive: 0.63.
In the case of GCGCAGCCUUUAGAGGAUATT against UBE2J1, the median seed-adjusted z-score is reported as active: -1.2.
With GGUAAUCUUUAUGAAGAGATT against GCM1 the median seed-adjusted z-score was inactive: 0.0197.
In the case of GGUUUUGACUCACCUGAAATT against PTK6, the median seed-adjusted z-score is reported as inactive: -0.295.
For GCAAGACAGUUCAAUAUGATT against KCNAB1, the median seed-adjusted z-score was inactive: 0.721.
For AAGUGGUGAUCGAGUUUAATT against MYL6B, the median seed-adjusted z-score was inactive: 0.11.
With UCGUCCUCUUUAACCCUGATT against RXRA the median seed-adjusted z-score was inactive: 0.304.
With GCUUCGACAUUGAAUACAATT against DSCAML1 the median seed-adjusted z-score was inactive: 0.237.
With CAGUGAUCAUGGUAGACGATT against SLC24A3 the median seed-adjusted z-score was inactive: 0.0177.
For AGAGAGUUAUGUUUACCGATT against CTSB, the median seed-adjusted z-score was inactive: -0.31.
In the case of AGACACCCUUUGGACCACATT against ZFAND2A, the median seed-adjusted z-score is reported as inactive: 0.
For CCUCAUCUAUCAUCAGAGATT against ZNF613, the median seed-adjusted z-score was inactive: -0.189.
In the case of CCUAUGAGUGGUACAAUAATT against ITK, the median seed-adjusted z-score is reported as inactive: -0.0372.
With GAAGCUACAGAAUCUGGAATT against ARFGAP2 the median seed-adjusted z-score was inactive: 0.0672.
With GCAUUUACACUGUAUAUUATT against POU4F2 the median seed-adjusted z-score was active: 1.46.
With CAUUGACCGGAACCAAAAATT against CTNND1 the median seed-adjusted z-score was inactive: 0.38.
For CGAAGUUCACUAUCGAACATT against DNAH11, the median seed-adjusted z-score was inactive: 0.104.
In the case of CGAUGCAAGUUCUCGAAGATT against PDSS1, the median seed-adjusted z-score is reported as inactive: -0.287.
In the case of GCUUCAAUGAGUUCCAAGATT against TMPRSS9, the median seed-adjusted z-score is reported as inactive: 0.106.
For AAGGGACAAUGAUAGUAGATT against TAL1, the median seed-adjusted z-score was inactive: -0.165.
In the case of AGGCCUCAGUUACCACUAUTT against DPF2, the median seed-adjusted z-score is reported as inactive: 0.373.
With GAUCUAAGGAUGAAAUAGATT against RAD54L the median seed-adjusted z-score was inactive: -0.393.
With CACUGACAAUGAUCAUGGATT against SNRK the median seed-adjusted z-score was inactive: 0.463.
In the case of GAAGGUUGUUUGCACAAGATT against TRAF6, the median seed-adjusted z-score is reported as inactive: 0.324.
With CGAUGAGCCUGGAACGGAATT against ACSS1 the median seed-adjusted z-score was inactive: 0.243.
In the case of ACCGCUACCUUUCUCUGUATT against GPR3, the median seed-adjusted z-score is reported as inactive: 0.
For GCAGUUAUUGGUACUAAUATT against MOAP1, the median seed-adjusted z-score was inactive: 0.0405.
For GAACCGCUACAAGAACAUUTT against PTPN6, the median seed-adjusted z-score was inactive: -0.515.
With GCGAGUGUGAGAAAACAUUTT against ZFP3 the median seed-adjusted z-score was inactive: 0.
In the case of GCCUAUUAUGGAGAAAAGATT against HES1, the median seed-adjusted z-score is reported as inactive: -0.262.
With CUUGGAAAUAGUCAGCAUATT against RARRES1 the median seed-adjusted z-score was inactive: -0.329.
For GCUUACGGCUUGUACCUGATT against SFRS17A, the median seed-adjusted z-score was inactive: -0.389.
For CACGAAUACUUCUUCCUGATT against FADS2, the median seed-adjusted z-score was inactive: 0.0769.
In the case of GCAGCUGAGUUCAUCCGAATT against ZCRB1, the median seed-adjusted z-score is reported as inactive: 0.265.
For GUCUACCAGUUGACCCGAATT against SMAD3, the median seed-adjusted z-score was inactive: -0.715.
With CCACUGUCCUGUUUGAGAUTT against FKBP6 the median seed-adjusted z-score was active: -1.12.
For UCAUGACCGGGUCCUAUAATT against PPP2R2D, the median seed-adjusted z-score was inactive: -0.118.
With GCUUUAGAGAUAAGUCAAATT against PRDM9 the median seed-adjusted z-score was inactive: -0.15.
For UAGUCAAACAGGCACAAUATT against HYAL2, the median seed-adjusted z-score was inactive: 0.056.
For GAACUGCGCAUAAAAAGAATT against CASP5, the median seed-adjusted z-score was inactive: 0.655.
For GAAUUGGGAACACUAGUUATT against ATP8B4, the median seed-adjusted z-score was inactive: -0.00244.
For CGAAAGAUUUAUGAGAUUUTT against TRAPPC4, the median seed-adjusted z-score was inactive: 0.
With GCCUCACGUUUGUCAGUAUTT against WNK3 the median seed-adjusted z-score was inactive: -0.466.
For CGAGUGAAGUGGGAUGAGATT against STARD5, the median seed-adjusted z-score was inactive: -0.0333.
With GAAGCGCAGAUCAAAAGGATT against LIN28 the median seed-adjusted z-score was inactive: -0.348.
For GGCUGUUGACUGUACUACATT against KCTD3, the median seed-adjusted z-score was inactive: 0.603.
In the case of GAAGUUUGACCAUGACUUUTT against ACCN5, the median seed-adjusted z-score is reported as inactive: 0.227.
With CGAUUUGAGCGGAGUGAGATT against KCTD7 the median seed-adjusted z-score was inactive: 0.484.
With GCUCCGGUAUGAAAUCAAATT against TIMP4 the median seed-adjusted z-score was inactive: -0.112.
For GGAAAUUACGGCUACAGAATT against AP1S3, the median seed-adjusted z-score was inactive: 0.153.
In the case of GCCUACACGUUGGAUGAUATT against MAOB, the median seed-adjusted z-score is reported as inactive: 0.
With CAGUGACUAUGGAUGUGCATT against NAT10 the median seed-adjusted z-score was inactive: 0.
For GCGGAAAGGUGGACUUUGATT against CABP2, the median seed-adjusted z-score was inactive: 0.323.
With GGACUUACACGUUUACAGATT against ADAM8 the median seed-adjusted z-score was inactive: -0.407.
For GUAUGAGUGUAAUAUCUGUTT against ZBTB43, the median seed-adjusted z-score was inactive: 0.143.
In the case of GCUAUGUACUUGCUGUGGATT against ALG1, the median seed-adjusted z-score is reported as inactive: 0.
For AGUACAUGCGAGACCCUGATT against LSM7, the median seed-adjusted z-score was inactive: -0.45.
For CAAUGUGCCUUACAUCUAUTT against TXNRD1, the median seed-adjusted z-score was inactive: 0.485.
With GGCACGUCCUGUUACACCATT against LMO4 the median seed-adjusted z-score was inactive: -0.067.
With GCCUUCUGAUGGUAGAUCUTT against RANBP17 the median seed-adjusted z-score was inactive: -0.123.
For GAAACAGUGCUAGAUAAAATT against SULT1C2, the median seed-adjusted z-score was inactive: 0.
In the case of AGAUGAUCCGCAAUCCCAATT against EPHB2, the median seed-adjusted z-score is reported as inactive: -0.325.
In the case of GCUGAUGACUGUCGUUAUATT against TBX3, the median seed-adjusted z-score is reported as inactive: 0.
With CUCUAAUGUUAAUCCGAGATT against MED14 the median seed-adjusted z-score was active: -3.22.
With GGCUGCUCAAGUUCCCAGATT against MVK the median seed-adjusted z-score was inactive: -0.192.
In the case of GCUGACCGCUGGGUGAUAATT against TMPRSS6, the median seed-adjusted z-score is reported as active: 1.29.
In the case of GAUUUGCUCUUAAGUGAAATT against PCDHB11, the median seed-adjusted z-score is reported as inactive: -0.257.
In the case of GGACGGUCCGCUCACAAAATT against NLGN2, the median seed-adjusted z-score is reported as inactive: 0.204.
With CGAACUGCUUUAUGACCUATT against KIF20A the median seed-adjusted z-score was inactive: 0.906.
In the case of AGAUCAGCAAGAACCCGAATT against CDC14B, the median seed-adjusted z-score is reported as inactive: 0.325.
With CCCGUUACCUUUGCCGAAATT against TRIM29 the median seed-adjusted z-score was inactive: 0.331.
With AGAACAUUAUUGGCCGGGATT against FOXB2 the median seed-adjusted z-score was inactive: -0.0149.
With GGCUCAACACUUCAUGACATT against CD96 the median seed-adjusted z-score was inactive: 0.461.
In the case of CAGCUGAAAUUUGCCCGCATT against ZNF197, the median seed-adjusted z-score is reported as inactive: -0.219.
In the case of CCCAUUUGAUCGACAAGUATT against TRIM23, the median seed-adjusted z-score is reported as inactive: -0.318.
With GGCAGUCCCUAUUAGCUAATT against CGREF1 the median seed-adjusted z-score was inactive: 0.0743.

From PubChem BioAssay AID1347426 (Functional Genomics Laboratory (NCATS/FGL), 2020)
